Source: the supplement of paper PMC7666118
The other results are listed elsewhere or left out.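 How the source made its calls: active = dose-dependent thermal stabilisation significant by F-test of dose-response against flat model at 10% FDR; inactive = not significant.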

Amino acid sequences for entries named in this document (tags omitted). A change or cut given only in a name is not applied to a line headed by its entry.
UniProt P0CG31: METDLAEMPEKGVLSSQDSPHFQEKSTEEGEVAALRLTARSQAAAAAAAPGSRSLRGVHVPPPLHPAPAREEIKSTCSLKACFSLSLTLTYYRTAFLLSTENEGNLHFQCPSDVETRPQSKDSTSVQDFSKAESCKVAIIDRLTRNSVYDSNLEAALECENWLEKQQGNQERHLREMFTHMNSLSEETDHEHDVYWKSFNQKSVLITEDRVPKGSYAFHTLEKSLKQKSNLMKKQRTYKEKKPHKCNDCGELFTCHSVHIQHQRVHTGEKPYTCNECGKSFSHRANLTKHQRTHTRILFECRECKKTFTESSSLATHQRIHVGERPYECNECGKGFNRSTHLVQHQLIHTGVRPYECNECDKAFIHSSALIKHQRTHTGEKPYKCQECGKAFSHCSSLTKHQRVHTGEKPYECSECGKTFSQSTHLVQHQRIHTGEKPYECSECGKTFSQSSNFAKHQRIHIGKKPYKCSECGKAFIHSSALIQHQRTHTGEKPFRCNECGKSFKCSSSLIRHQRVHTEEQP
UniProt Q6DD87: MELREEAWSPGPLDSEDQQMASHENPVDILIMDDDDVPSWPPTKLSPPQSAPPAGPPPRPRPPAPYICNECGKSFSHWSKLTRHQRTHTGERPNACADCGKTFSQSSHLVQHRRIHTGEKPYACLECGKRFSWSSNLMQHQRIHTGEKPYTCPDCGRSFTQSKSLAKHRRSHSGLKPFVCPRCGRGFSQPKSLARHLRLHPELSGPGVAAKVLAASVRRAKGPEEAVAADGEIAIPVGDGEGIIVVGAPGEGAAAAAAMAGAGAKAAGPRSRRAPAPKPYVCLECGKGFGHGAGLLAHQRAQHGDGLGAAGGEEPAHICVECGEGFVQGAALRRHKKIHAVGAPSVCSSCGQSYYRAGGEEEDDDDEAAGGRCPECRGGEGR
UniProt Q9UL40: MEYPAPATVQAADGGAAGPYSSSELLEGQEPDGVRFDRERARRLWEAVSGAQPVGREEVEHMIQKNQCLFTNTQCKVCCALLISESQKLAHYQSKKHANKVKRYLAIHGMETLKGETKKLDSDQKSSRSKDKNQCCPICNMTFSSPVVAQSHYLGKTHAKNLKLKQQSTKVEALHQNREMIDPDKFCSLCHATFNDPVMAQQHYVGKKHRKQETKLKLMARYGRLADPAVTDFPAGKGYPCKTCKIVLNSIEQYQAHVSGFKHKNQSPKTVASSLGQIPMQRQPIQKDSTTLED
UniProt O43670: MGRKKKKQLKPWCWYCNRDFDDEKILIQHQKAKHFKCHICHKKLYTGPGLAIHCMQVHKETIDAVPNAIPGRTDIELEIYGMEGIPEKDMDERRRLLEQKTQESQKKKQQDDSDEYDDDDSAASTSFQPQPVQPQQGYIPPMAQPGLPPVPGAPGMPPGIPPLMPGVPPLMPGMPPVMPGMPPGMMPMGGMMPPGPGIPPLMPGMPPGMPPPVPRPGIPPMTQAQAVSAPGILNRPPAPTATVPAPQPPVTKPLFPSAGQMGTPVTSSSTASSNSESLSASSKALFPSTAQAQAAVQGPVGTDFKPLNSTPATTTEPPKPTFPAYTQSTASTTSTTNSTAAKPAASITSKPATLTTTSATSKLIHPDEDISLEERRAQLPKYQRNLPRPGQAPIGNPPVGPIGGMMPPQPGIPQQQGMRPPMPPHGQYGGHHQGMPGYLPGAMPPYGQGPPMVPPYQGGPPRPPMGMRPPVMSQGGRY
UniProt Q5VV52: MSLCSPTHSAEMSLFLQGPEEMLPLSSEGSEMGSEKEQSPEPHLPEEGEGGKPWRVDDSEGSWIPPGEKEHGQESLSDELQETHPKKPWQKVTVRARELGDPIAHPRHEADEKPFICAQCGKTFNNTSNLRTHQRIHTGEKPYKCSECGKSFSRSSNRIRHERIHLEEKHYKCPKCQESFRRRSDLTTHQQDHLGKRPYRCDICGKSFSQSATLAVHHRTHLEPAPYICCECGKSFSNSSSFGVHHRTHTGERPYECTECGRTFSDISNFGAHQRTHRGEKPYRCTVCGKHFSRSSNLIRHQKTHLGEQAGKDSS
UniProt Q8NHG8: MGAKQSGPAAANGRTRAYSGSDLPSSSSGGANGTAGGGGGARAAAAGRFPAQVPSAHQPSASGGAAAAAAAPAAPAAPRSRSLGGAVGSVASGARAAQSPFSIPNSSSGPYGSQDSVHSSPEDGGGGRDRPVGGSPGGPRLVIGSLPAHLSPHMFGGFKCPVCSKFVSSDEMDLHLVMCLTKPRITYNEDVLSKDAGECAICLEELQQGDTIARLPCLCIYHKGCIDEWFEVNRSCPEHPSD
UniProt Q7Z4V0: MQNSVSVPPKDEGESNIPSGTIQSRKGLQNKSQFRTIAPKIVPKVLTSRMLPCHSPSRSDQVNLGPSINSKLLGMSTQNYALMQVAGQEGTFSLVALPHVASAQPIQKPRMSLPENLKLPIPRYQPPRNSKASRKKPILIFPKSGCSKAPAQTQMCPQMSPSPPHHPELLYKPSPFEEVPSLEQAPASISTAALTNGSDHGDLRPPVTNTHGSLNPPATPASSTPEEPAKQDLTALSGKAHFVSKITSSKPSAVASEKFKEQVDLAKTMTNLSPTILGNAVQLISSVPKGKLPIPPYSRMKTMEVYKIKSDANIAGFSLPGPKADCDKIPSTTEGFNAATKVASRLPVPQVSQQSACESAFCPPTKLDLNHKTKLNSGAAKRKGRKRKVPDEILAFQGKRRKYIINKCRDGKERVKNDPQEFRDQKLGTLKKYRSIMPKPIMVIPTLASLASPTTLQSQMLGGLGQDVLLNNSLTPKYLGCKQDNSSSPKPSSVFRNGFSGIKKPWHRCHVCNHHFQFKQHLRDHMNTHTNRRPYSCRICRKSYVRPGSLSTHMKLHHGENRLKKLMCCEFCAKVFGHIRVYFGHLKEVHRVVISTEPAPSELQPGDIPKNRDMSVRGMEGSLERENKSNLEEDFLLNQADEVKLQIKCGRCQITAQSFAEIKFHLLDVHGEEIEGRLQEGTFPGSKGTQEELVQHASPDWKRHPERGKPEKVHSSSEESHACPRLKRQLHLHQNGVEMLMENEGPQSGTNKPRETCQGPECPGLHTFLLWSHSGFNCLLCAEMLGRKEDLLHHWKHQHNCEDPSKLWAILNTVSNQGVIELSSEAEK
UniProt Q8NF64: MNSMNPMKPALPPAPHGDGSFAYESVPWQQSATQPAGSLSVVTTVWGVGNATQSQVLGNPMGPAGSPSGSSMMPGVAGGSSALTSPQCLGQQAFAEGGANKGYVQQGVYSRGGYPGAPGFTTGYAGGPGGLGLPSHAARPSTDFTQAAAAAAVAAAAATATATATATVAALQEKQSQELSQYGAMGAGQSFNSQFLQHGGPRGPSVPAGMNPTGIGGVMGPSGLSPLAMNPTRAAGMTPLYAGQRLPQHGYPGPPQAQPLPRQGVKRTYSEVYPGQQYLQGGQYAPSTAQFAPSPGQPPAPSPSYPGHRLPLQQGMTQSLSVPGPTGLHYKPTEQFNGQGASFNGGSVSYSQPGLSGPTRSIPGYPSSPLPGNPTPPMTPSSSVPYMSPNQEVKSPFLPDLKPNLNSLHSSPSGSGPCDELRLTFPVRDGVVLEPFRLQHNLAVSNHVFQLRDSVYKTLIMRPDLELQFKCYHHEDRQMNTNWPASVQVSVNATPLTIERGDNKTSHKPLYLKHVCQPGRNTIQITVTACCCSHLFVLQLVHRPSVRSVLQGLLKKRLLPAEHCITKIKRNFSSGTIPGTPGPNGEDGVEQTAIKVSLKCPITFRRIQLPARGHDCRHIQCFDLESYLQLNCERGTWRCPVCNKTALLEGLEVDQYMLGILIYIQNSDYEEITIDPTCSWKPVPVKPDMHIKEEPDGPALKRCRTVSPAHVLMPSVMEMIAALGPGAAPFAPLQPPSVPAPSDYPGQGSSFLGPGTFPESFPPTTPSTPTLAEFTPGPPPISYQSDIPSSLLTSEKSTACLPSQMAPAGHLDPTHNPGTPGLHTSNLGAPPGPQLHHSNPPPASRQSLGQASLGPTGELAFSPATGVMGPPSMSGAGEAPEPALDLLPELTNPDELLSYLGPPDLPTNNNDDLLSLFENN
UniProt Q9HBT8: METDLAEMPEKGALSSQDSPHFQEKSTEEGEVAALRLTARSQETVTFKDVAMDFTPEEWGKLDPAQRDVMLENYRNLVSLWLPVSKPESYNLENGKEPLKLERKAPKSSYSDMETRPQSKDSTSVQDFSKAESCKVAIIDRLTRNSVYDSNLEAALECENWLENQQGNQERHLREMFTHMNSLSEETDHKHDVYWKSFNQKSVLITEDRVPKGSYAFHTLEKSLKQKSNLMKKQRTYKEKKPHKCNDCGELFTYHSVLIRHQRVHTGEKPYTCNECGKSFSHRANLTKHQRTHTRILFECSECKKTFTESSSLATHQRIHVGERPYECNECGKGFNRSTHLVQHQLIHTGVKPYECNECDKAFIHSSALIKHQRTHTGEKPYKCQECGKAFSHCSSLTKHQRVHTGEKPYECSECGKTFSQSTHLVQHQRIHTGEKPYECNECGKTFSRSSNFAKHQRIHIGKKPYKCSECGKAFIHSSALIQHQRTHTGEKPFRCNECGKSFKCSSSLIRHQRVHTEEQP

Each target was assayed with Nc1nc2c(ncn2[C@@H]2O[C@H](COP(=O)(O)OP(=O)(O)OP(=O)(O)O)[C@@H](O)[C@H]2O)c(=O)[nH]1 (assay: dose-dependent thermal stabilisation call (2D-TPP, DLPTP, 10% FDR) (binary (1 = stabilised)); higher = stabilised by the compound). Conditions: system: Jurkat gel-filtered lysate; concentration range 1-500 µM.
Method: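 2D thermal proteome profiling in gel-filtered Jurkat E6.1 lysate (2 mg/ml) treated with NaGTP (0, 1, 10, 100, 500 uM) for 10 min at room temperature, then heated 3 min at one of 12 temperatures (42-63.9 C). Soluble protein was quantified by TMT10 MS. The value is the DLPTP call of the paper: dose-dependent thermal stabilisation over all temperatures at 10% FDR (F-test of a dose-response against a flat model); one experiment, one call per tested protein.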

| Target | dose-dependent thermal stabilisation call |
| --- | --- |
| ZNF286B (UniProt P0CG31) | inactive: 0 |
| ZNF787 (UniProt Q6DD87) | inactive: 0 |
| ZNF346 (UniProt Q9UL40) | inactive: 0 |
| ZNF207 (UniProt O43670) | inactive: 0 |
| ZNF691 (UniProt Q5VV52) | inactive: 0 |
| ZNRF2 (UniProt Q8NHG8) | inactive: 0 |
| ZNF438 (UniProt Q7Z4V0) | inactive: 0 |
| ZMIZ2 (UniProt Q8NF64) | inactive: 0 |
| ZZEF1 (UniProt O43149) | inactive: 0 |
| ZNF286A (UniProt Q9HBT8) | inactive: 0 |
